Source: PMC4068353, “Characterization of 14-3-3-ζ Interactions with Integrin Tails” (Journal of Molecular Biology, 2013)
Results are given in words; binding and its absence hold for the method and conditions named. Some results given as binding are weak or reduced against the parent protein; the word gives no strength.

Protein sequences, listed by entry. Tags and fused reporters are not part of them. Lines headed by an entry give the natural chain unless they say otherwise; changes in a name come on top.
UniProt P63104: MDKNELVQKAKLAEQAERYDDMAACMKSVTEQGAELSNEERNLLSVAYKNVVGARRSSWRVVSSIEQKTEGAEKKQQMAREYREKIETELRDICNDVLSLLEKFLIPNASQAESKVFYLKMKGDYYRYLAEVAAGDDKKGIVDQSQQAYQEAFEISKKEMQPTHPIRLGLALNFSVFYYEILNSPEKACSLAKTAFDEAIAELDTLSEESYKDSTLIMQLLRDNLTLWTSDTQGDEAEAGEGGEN

Experiments:
[1] = molecular target: T1, β2 integrin cytoplasmic tail, wild type (human (from the printed UniProt entry)); assay: NMR titration; data not shown: β2 integrin tail with 14-3-3-ζ wt, S58A and S58E; both purified
[2] = molecular target: β1A integrin cytoplasmic tail, wild type (human (from the printed UniProt entry)); assay: NMR titration; 15N-1H HSQC of 15N-labeled integrin tail (0.1 mM) before and after addition of unlabeled 14-3-3-ζ (wt or variant; equimolar, 0.1 mM); 20 mM sodium phosphate, 50 mM NaCl, pH 6.5, 5% D2O, 25 °C; read-out: loss of resonance intensity (I/Io); both purified
[3] = molecular target: T1, β2 integrin cytoplasmic tail, wild type (human); assay: ITC; integrin tail fragment in the cell (80-200 μM), 14-3-3-ζ in the syringe (0.75-2 mM); 298 K; 20 mM sodium phosphate, 50 mM NaCl, pH 6.5; one-site model; both purified
[4] = molecular target: T2, α4 integrin cytoplasmic tail, wild type (human (from the printed UniProt entry)); assay: as above
T2 sequence: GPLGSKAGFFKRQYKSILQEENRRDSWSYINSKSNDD

[5] = molecular target: T3, β7 integrin cytoplasmic tail, wild type (human (from the printed UniProt entry)); assay: NMR titration; 15N-1H HSQC of 15N-labeled integrin tail (0.1 mM) before and after addition of unlabeled 14-3-3-ζ (wt or variant; equimolar, 0.1 mM); 20 mM sodium phosphate, 50 mM NaCl, pH 6.5, 5% D2O, 25 °C; read-out: loss of resonance intensity (I/Io); both purified
T3 sequence: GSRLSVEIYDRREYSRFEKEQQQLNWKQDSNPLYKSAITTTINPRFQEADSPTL

[6] = molecular target: T1, β2 integrin cytoplasmic tail, wild type (human); assay: as above
[7] = molecular target: β1D integrin cytoplasmic tail, wild type (human (from the printed UniProt entry)); assay: as above
[8] = molecular target: T4, β3 integrin cytoplasmic tail, wild type (human (from the printed UniProt entry)); assay: as above
T4 sequence: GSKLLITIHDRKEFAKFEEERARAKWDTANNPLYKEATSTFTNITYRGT

Measured: binding

14-3-3-ζ S58E (from UniProt P63104 1-245)
binds weakly: [1] | [2]

14-3-3-ζ (from UniProt P63104 1-245)
binds weakly: [3] | [4] | [1] | [2] | [5] | [6] | [7] | [8]

14-3-3-ζ S58A (from UniProt P63104 1-245)
binds weakly: [1] | [2]
